Test results taken from paper PMC7577714, “Regulation of chaperone function by coupled folding and oligomerization” (Science Advances, 2020).
Substitutions are numbered along the chain they refer to. Names and notes keep the numbering of the source. Results are given in words; binding and its absence hold for the method and conditions named. Binding calls can cover weak binding; strength is not graded here. Values belong to the binder of their own block, whether it stands above or below them.

How the values were obtained:
[1] = target: tOmpA, the eight-stranded transmembrane domain of OmpA (residues 1 to 177); assay: SEC-MALS; Skp(A108L) with added tOmpA; apparent molecular mass; both purified
[2] = target: tOmpA, the eight-stranded transmembrane domain of OmpA (residues 1 to 177); assay: NMR chemical shift perturbation (apo against complex); [U-2H,15N]-Skp variants without and with unlabeled tOmpA, 2D [15N,1H]-TROSY, 37°C, 20 mM MES pH 6.5, 150 mM NaCl; both purified

binding [1]: binds
binding [2]: binds
B1: Skp(A108L) (natural protein, E. coli, UniProt P0AEU7 21-161, looked up)
chain: ADKIAIVNMGSLFQQVAQKTGVSNTLENEFKGRASELQRMETDLQAKMKKLQSMKAGSDRTKLEKDVMAQRQTFAQKAQAFEQDRARRSNEERGKLVTRIQTAVKSVLNSQDIDLVVDANAVAYNSSDVKDITADVLKQVK
notes: Monomer-trimer equilibrium strongly shifted toward the monomer; also called Skp(108L); source: E. coli BL21-(λ DE3)-Lemo, purified (Ni-NTA, SEC); not shown: His6, N-terminal, kept

binding [2]: binds
B2: Skp(A103R) (natural protein, E. coli, UniProt P0AEU7 21-161, looked up)
chain: B1 chain with A103R, L108A
notes: Monomer-trimer equilibrium shifted toward the monomer; source: E. coli BL21-(λ DE3)-Lemo, purified (Ni-NTA, SEC); not shown: His6, N-terminal, kept

binding [2]: binds
B3: Skp(WT), seventeen kilodalton protein, periplasmic chaperone of Escherichia coli (natural protein, E. coli, UniProt P0AEU7 21-161, looked up)
chain: B1 chain with L108A
notes: Stands in a monomer-trimer equilibrium; the active form is the homotrimer; The thrombin-cleavable His6-tag of pET28b was not cleaved; Isotope-labelled for NMR in some samples; source: E. coli BL21-(λ DE3)-Lemo, purified (Ni-NTA, SEC); not shown: His6, N-terminal, kept

binding [2]: binds
B4: Skp(A103L) (natural protein, E. coli, UniProt P0AEU7 21-161, looked up)
chain: B1 chain with A103L, L108A
notes: Monomer-trimer equilibrium essentially as the wild type; source: E. coli BL21-(λ DE3)-Lemo, purified (Ni-NTA, SEC); not shown: His6, N-terminal, kept
